In PubChem BioAssay AID2685 (National Center for Advancing Translational Sciences (NCATS), 2010):
The other results are listed elsewhere or left out. Shown are side measurements of this screen, not its main read-out; they come without a call. The list favours compounds with an active or inconclusive main result. The note in brackets gives the kind of curve behind each potency; many fits are weak.

Experiment: qHTS Assay for Lipid Storage Modulators in Drosophila S3 Cells;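 as to cell number change: cells counted by Cell Tracker Red CMTPX staining in the red channel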
Settings: BODIPY lipid droplet fluorescence, 18-24 h; for cell number change: measured here: cell count max response, cells fed with added oleic acid
In short: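 Laser-scanning cytometry quantifies lipid droplet accumulation (500–530 nm total intensity; droplet/cell object ratio) in oleic acid-fed (400 uM added) Drosophila S3 cells treated with a concentration series. 20 uM Triacsin C defined 100% inhibition.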

[1] = measured here: cell number channel AC50, cells fed with added oleic acid
[2] = measured here: lipid fluorescence (Fed channel) AC50, cells fed with added oleic acid

Structure (SMILES)	cell number change	AC50 [1]	AC50 [2]
CCOc1ccccc1NC(=O)CNC(=O)Cc1ccccc1	40.6%	29.1 µM [rising, partial curve, poor fit]	25.9 µM [rising, partial curve]
O=C(Nc1ccc2cn[nH]c2c1)c1ccccc1F	28.9%		0.92 µM [rising, partial curve, poor fit]
COc1ccc(OCC(=O)Nc2ccc(N3CCOCC3)cc2)cc1	3.78%		0.206 µM [rising, full curve]
CC1(C)Cc2ccccc2-c2nnc(SCC(=O)N3CCN(c4ccccc4)CC3)n21	-11.2%		
CCc1ccc(N2CC(C(=O)OCC(=O)Nc3ccc([N+](=O)[O-])cc3)CC2=O)cc1 (stereo not given)	19.4%		29.1 µM [rising, single point]
Cn1c(=O)[nH]c(=O)c2c1nc(N)n2Cc1ccccc1	80.1%	25.9 µM [rising, partial curve]	
CCOc1c(C)cnc2c1c(=O)n(Cc1ccc(Cl)cc1)c(=O)n2C	19.9%		29.1 µM [rising, single point]
O=C1NCCN(Cc2c(F)cccc2Cl)C1CC(=O)N1CCCCO1 (stereo not given)	14.3%		
O=C(c1ccccc1)c1ccccc1N1C(=O)C=CC1=O	-65.7%	5.8 µM [falling, full curve]	6.51 µM [falling, full curve]
CCCc1c(C)c2ccc(OCC(C)=O)cc2oc1=O	32.9%	0.82 µM [rising, full curve, poor fit]	
O=C(CCS(=O)(=O)Cc1ccccc1)Nc1ncc([N+](=O)[O-])s1	10.1%		1.84 µM [rising, partial curve]
CCOC(=O)c1c(NC2=NS(=O)(=O)c3ccccc32)sc2c1CCC(C)C2 (stereo not given)	-7.57%	0.103 µM [falling, full curve, poor fit]	
CCCCOC(=O)c1cc(C)nc2ccc(Br)cc12	-11.9%		5.17 µM [rising, single point]
CN(CCc1ccccn1)C(=O)CCC1CCCN(C(=O)c2cccc(N(C)C)c2)C1 (stereo not given)	-36.4%		
C[C@@H](C(=O)Nc1ccccc1N1CCOCC1)N1C(=O)C2CC=CCC2C1=O (stereo not given in full)	62.2%	18.4 µM [rising, partial curve]	
COc1ccc(CN2CCC(=O)N([C@H](CO)Cc3ccccc3)CC2)cc1	21.3%		29.1 µM [falling, single point]
CCN(Cc1nc2ccccc2c(=O)[nH]1)C(=O)CN1C(=O)NC2(CCCCC2C)C1=O (stereo not given)	-1.75%		4.61 µM [rising, partial curve, poor fit]
COc1ccc(CCc2nnc(NS(C)(=O)=O)s2)cc1	-13.2%		
O.O.O.O=S(=O)([O-])OC[C@H]1O[C@@H](O[C@]2(COS(=O)(=O)[O-])O[C@H](OS(=O)(=O)[O-])[C@@H](OS(=O)(=O)[O-])[C@@H]2OS(=O)(=O)[O-])[C@H](OS(=O)(=O)[O-])[C@@H](OS(=O)(=O)[O-])[C@@H]1OS(=O)(=O)[O-].[Al]	29.8%		0.146 µM [rising, full curve, poor fit]
COC(C(=O)NC1CCCCCCC1)c1ccccc1 (stereo not given)	-2.12%		
COC(=O)CC1C(=O)NCCN1C(=O)c1ccccc1 (stereo not given)	-13.7%	6.51 µM [falling, single point]	16.4 µM [falling, single point]

Structure (SMILES)	cell number change	AC50 [1]	AC50 [2]
CNC(=O)CSc1nc(SC)ns1		2.91 µM [falling, single point]	5.17 µM [falling, single point]
O=C1CN(C(=O)COC(=O)c2oc3ccccc3c2COc2ccccc2)c2ccccc2N1		1.16 µM [rising, full curve, poor fit]	0.58 µM [rising, full curve]
O=C(O)CCSCCC(=O)O	8.39%	0.259 µM [falling, full curve, poor fit]	
Cc1ccc(-n2c(N)c(C#N)c(-c3ccccc3)c(C#N)c2=O)cc1	-32.2%	4.11 µM [falling, full curve, poor fit]	23.1 µM [falling, partial curve]
CCCc1nn(C)c2c1C(c1ccncc1)C(C#N)=C(N)O2 (stereo not given)	1.72%		
CCCCNC(=S)N1CCN(c2ccccc2Cl)CC1	15.4%		0.731 µM [rising, full curve, poor fit]
Cc1noc(C)c1-c1nc(CSc2ccc(Cl)cc2)no1	-54.4%	29.1 µM [falling, single point]	29.1 µM [falling, single point]
Cc1ccc(N2C(=O)c3ccc(N)cc3C2=O)cc1	-8.73%		5.17 µM [rising, full curve, poor fit]
C[C@@H](NC(=O)c1ncn(C)c1C(=O)N[C@H](C)c1ccccc1)c1ccccc1	-30.9%	29.1 µM [falling, single point]	29.1 µM [falling, single point]
COc1ccccc1CNC(=O)[C@H](C)NC(=O)[C@@H]1Cc2ccccc2CN1	-16%		
C/C(=N\NC(N)=S)C1C2C3CC4C5CC(C42)C1C53 (stereo not given)	-34%		29.1 µM [falling, single point]
C/C(=N/NC(=O)CCC(=O)Nc1cccc(Cl)c1)c1ccc(C)cc1			29.1 µM [rising, partial curve, poor fit]
O=C(/C=C/c1ccccc1)NCC(=O)N/N=C/c1cccs1	18.4%		
O=C(NCc1ccc(Cl)cc1)NCc1ccc(Cl)cc1	8.28%		4.11 µM [rising, partial curve, poor fit]
CC(Cc1cccs1)NC(=O)Nc1ccc([N+](=O)[O-])cc1 (stereo not given)	49%	0.00517 µM [rising, full curve, poor fit]	1.16 µM [rising, full curve, poor fit]
CCOC(=O)c1cc(C#N)c(SCC(=O)Nc2ccc(C(C)=O)cc2)[nH]c1=O	4.91%		
O=C(COC(=O)c1c[nH]c(=O)[nH]c1=O)NCc1ccccc1	-17%		
Cc1cc(C)cc(NC(=O)CCN2CCOCC2)c1	9.59%		0.731 µM [falling, single point]
CCN(CC)S(=O)(=O)c1ccc(O)c(C(=O)OCC(=O)N2CCCC2)c1	-0.451%		0.82 µM [falling, full curve]
Cc1ccc(C)c(OCC(=O)N2CCN(C(=O)c3ccco3)CC2)c1	26.7%		6.51 µM [rising, partial curve]
Oc1ccc(Cl)cc1N=Cc1sc2ccccc2c1Cl	1.77%		0.00461 µM [rising, full curve, poor fit]

In the list so far, these have a nitro group on carbon:
Structure (SMILES)	cell number change	AC50 [1]	AC50 [2]
CCc1ccc(N2CC(C(=O)OCC(=O)Nc3ccc([N+](=O)[O-])cc3)CC2=O)cc1 (stereo not given)	19.4%		29.1 µM [rising, single point]
O=C(CCS(=O)(=O)Cc1ccccc1)Nc1ncc([N+](=O)[O-])s1	10.1%		1.84 µM [rising, partial curve]
CC(Cc1cccs1)NC(=O)Nc1ccc([N+](=O)[O-])cc1 (stereo not given)	49%	0.00517 µM [rising, full curve, poor fit]	1.16 µM [rising, full curve, poor fit]

(listing goes on)

Structure (SMILES)	cell number change	AC50 [1]	AC50 [2]
O=C(O)CNS(=O)(=O)c1ccc(F)cc1	-24.6%		3.66 µM [falling, full curve]
COc1cc(C(=O)n2cnc3ccccc32)c([N+](=O)[O-])cc1OC	-5.28%		
O=C(CC1Nc2cccc3cccc(c23)NC1=O)Nc1ccc(F)cc1 (stereo not given)	-16%		
CCN1CCN(c2ccc(S(=O)(=O)N3CCCCC3)cc2NC(=O)Cc2ccc(OC)cc2)CC1	-13.1%		
COc1ccc(/C=C2/C(=O)N(Cc3ccccc3)N=C2C)cc1	78.4%	20.6 µM [rising, single point]	0.92 µM [falling, full curve, poor fit]
Cc1cc(C)cc(OCC(=O)OCC(=O)NC2CCCCCC2)c1	-10.7%		20.6 µM [rising, single point]
COCCn1c(SCc2cc(=O)n3cc(C)ccc3n2)nc2ccccc2c1=O	100%	25.9 µM [rising, single point]	
C/C(=N/NC(=O)C1CC1(c1ccccc1)c1ccccc1)c1ccco1 (stereo not given)	5.39%		8.2 µM [rising, partial curve, poor fit]
O=C(CSC1=NCCS1)Nc1nc2c(s1)CCCC2	17.5%		29.1 µM [rising, single point]
O=C(COC(=O)c1ccccc1)Nc1cccc(S(=O)(=O)NC2=NCCCCC2)c1	-47.6%	0.206 µM [falling, full curve, poor fit]	
COc1ccc(CC(=O)Nc2cccc(-c3nnc(-c4ccco4)o3)c2)cc1	-1.72%		23.1 µM [falling, single point]
CC(C)NC(=O)CSc1nc(Cc2cccs2)nc2ccccc12			5.17 µM [rising, partial curve]
Cc1nn(C2CCS(=O)(=O)C2)c2nc(C3CC3)cc(C(=O)Nc3cccc(C#N)c3)c12 (stereo not given)		5.8 µM [rising, partial curve, poor fit]	
COC(/C=C/Nc1ccc(C)c(C)c1)=C(C#N)C#N	-40.1%	0.517 µM [falling, full curve, poor fit]	2.59 µM [falling, full curve]
CN(C)c1ccc(/C=N/NC(=O)CCCO)cc1			29.1 µM [rising, single point]
N#C/C(=C/c1cccs1)c1nc2ccccc2[nH]1	8.15%		0.517 µM [rising, full curve]
COc1ccc(OC(=O)COc2ccc(C)cc2)cc1	16.3%		2.31 µM [rising, single point]
COc1ccccc1N1CCN(C(=O)/C=C/c2ccc(C)cc2)CC1	-36.6%	3.66 µM [rising, partial curve]	
CSc1ccc(C(c2c(C(=O)O)[nH]c3ccccc23)c2c(C(=O)O)[nH]c3ccccc23)cc1	5.11%		
N#CCC(=O)Nc1cc(C(F)(F)F)ccc1N1CCOCC1	3.69%		0.082 µM [falling, single point]
